Results are given in words; binding and its absence hold for the method and conditions named. Binding seen in cells or lysates may run through a third protein. Some binding calls cover weakened binding; strength is not graded here. Each block holds one molecule with its values, some of them ahead of it.
Biological target: T1, protein arginine N-methyltransferase 4/coactivator-associated arginine methyltransferase 1 (PRMT4/CARM1) (UniProt Q86X55)
T1 sequence: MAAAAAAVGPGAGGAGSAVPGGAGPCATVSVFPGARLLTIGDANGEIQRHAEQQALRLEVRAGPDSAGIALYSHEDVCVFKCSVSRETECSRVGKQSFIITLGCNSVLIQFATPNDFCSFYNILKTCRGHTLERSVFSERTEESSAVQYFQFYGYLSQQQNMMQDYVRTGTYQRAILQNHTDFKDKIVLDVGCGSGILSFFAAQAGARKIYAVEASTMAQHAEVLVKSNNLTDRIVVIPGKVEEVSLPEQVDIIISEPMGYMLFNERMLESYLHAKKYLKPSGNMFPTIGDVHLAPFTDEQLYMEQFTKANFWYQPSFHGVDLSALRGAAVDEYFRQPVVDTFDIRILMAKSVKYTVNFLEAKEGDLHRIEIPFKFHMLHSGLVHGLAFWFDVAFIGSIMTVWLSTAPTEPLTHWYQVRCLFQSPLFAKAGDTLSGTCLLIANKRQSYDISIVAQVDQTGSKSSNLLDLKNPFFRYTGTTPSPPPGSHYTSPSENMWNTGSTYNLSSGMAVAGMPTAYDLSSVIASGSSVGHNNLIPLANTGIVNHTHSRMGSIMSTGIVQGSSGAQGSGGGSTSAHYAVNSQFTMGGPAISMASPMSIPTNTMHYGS
Assay: co-IP; 1 mg of cell lysate in PBS with 0.5% Tween 20 plus protease inhibitors, primary antibody 2 h at room temperature, protein A/G agarose beads 2 h, immunoblotting; cells and precipitating antibody not told

Chains of the proteins cited; added tags and fusions are not shown.
UniProt P63208: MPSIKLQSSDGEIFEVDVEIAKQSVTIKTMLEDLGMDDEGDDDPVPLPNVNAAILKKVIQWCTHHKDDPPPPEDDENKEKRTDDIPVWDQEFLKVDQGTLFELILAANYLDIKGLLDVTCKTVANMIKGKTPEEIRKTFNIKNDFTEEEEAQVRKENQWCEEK

binding: binds
Molecule: Skp1 (from UniProt P63208 1-163)

binding: binds
B1: F-box protein FBXO9 (protein, UniProt Q9UK97 1-447)
chain: MPDIIWVFPPQAEAEEDCHSDTVRADDDEENESPAETDLQAQLQMFRAQWMFELAPGVSSSNLENRPCRAARGSLQKTSADTKGKQEQAKEEKARELFLKAVEEEQNGALYEAIKFYRRAMQLVPDIEFKITYTRSPDGDGVGNSYIEDNDDDSKMADLLSYFQQQLTFQESVLKLCQPELESSQIHISVLPMEVLMYIFRWVVSSDLDLRSLEQLSLVCRGFYICARDPEIWRLACLKVWGRSCIKLVPYTSWREMFLERPRVRFDGVYISKTTYIRQGEQSLDGFYRAWHQVEYYRYIRFFPDGHVMMLTTPEEPQSIVPRLRTRNTRTDAILLGHYRLSQDTDNQTKVFAVITKKKEEKPLDYKYRYFRRVPVQEADQSFHVGLQLCSSGHQRFNKLIWIHHSCHITYKSTGETAVSAFEIDKMYTPLFFARVRSYTAFSERPL

From publication PMC8414963
